Tested on: brain membranes prepared from α1,2,3,5 H→R point mutated mice
Format: binding, mice (RRRR)
Conditions: 4 nM [3H]Ro 15-4513; increasing concentrations; n=4
Description: The supernatant was centrifuged for 20 min at 30,000 g and the resulting crude membrane pellet was washed once with buffer. […] Non-specific [^3H]Ro 15-4513 binding was assessed by addition of 10 μM flumazenil to the reaction. Incubation was stopped by rapid vacuum filtration using a semiautomatic cell harvester (Skatron Instruments) and washed filters were subjected to liquid scintillation counting.

## CN1C(=O)CN=C(c2ccccc2)c2cc(Cl)ccc21 [DZP, Diazepam]
  displacement of [3H]Ro 15-4513 binding: The same was confirmed
